Source: patent publication US20240384003A1 (PRECISION BIOLOGICS, published 2024)
These are yes or no findings as the source states them, for the method shown. Some results given as binding are weak or reduced against the parent protein; the word gives no strength.

Chains of the proteins cited; added tags and fusions are not shown. Lines headed by an entry give the natural chain unless they say otherwise; changes in a name come on top. Residues count along the entry.
UniProt P06731: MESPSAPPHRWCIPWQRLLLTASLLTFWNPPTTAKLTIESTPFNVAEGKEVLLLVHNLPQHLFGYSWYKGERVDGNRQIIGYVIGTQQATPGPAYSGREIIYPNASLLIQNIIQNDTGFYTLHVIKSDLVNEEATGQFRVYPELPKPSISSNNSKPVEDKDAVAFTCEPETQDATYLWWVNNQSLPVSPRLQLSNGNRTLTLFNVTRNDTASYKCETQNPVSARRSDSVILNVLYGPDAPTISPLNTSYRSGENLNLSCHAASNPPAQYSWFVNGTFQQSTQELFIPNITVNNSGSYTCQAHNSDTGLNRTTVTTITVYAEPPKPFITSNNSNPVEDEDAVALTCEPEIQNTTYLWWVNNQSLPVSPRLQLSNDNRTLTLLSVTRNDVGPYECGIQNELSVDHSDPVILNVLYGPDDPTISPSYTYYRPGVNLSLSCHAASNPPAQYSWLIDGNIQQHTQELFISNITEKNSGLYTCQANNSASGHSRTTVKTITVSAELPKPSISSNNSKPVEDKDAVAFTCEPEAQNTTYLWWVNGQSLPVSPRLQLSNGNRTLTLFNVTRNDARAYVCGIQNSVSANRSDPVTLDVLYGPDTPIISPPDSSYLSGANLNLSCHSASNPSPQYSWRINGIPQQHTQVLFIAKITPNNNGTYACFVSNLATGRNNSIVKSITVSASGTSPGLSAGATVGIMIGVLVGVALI
CEACAM5-D2-320*: residues 35-319 of P06731
CEACAM5-D2-318*: residues 35-317 of P06731
CEACAM5-D2-316*: residues 35-315 of P06731
CEACAM5-D2-314*: residues 35-313 of P06731

What was measured:
Experiment in all cases: ELISA binding curves of truncated CEACAM5
CEACAM5-D2-314* (human) = CEACAM5-D2-314* (human) (UniProt P06731)
CEACAM5-D2-320* (human) = CEACAM5-D2-320* (human) (UniProt P06731)
CEACAM5-D2-316* (human) = CEACAM5-D2-316* (human) (UniProt P06731)
CEACAM5-D2-318* (human) = CEACAM5-D2-318* (human) (UniProt P06731)

Measured: binding

B1: NEO-201 (antibody, human IgG1, kappa, V domains shown)
VH: QVQLVQSGAEVKKPGASVKVSCKASGYTFTDYAMHWVRQAPGQRLEWMGLISTYSGDTKYNQNFQGRVTMTVDKSASTAYMELSSLRSEDTAVYYCARGDYSGSRYWFAYWGQGTLVTVSS
VL: DIQMTQSPSSLSASVGDRVTITCQASENIYGALNWYQRKPGKSPKLLIYGASNLATGMPSRFSGSGSGTDYTFTISSLQPEDIATYYCQQVLSSPYTFGGGTKLEIKR
notes: also called H16C3-Abb*
binds: all assays above
